# Test results reported in PubChem BioAssay AID504834 (National Center for Advancing Translational Sciences (NCATS), 2011).
# The whole screen tested about 320,000 compounds, of which about 22,000 (6.9%) were called active. The inconclusive results got no clear call from the source; some entries with a clear call stand among them for comparison. Calls come from the whole dose curve; as a rule, active = well fitted inhibition curve with a large enough effect; inconclusive = small, poorly fitted or top-dose-only effect, or another doubt; inactive = no such curve, though single readings can be large or run the other way. Potencies of inconclusive entries are doubtful fits and often do not repeat.
# Test: Primary qHTS for delayed death inhibitors of the malarial parasite plastid, 96 hour incubation
# Settings: P. falciparum luciferase reporter growth; series mostly up to 28.7 µM
# Summary of the method: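 Two parasite generations (96 h, 37 C, 5% CO2) of compound exposure in infected erythrocytes (0.05% parasitemia, 2% hematocrit). Luciferase-reporter P. falciparum; decreased luminescence indicates inhibited growth, aimed at apicoplast-acting delayed death.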
# % is set by controls: 0 for no effect and ±100 for the full control effect; potency is the fitted concentration of half-maximal effect.
Compound,Potency,"activity change, negative = inhibition"
CC(C)C(NC(=O)c1ccccc1)c1nnc(SCC(=O)Nc2nccs2)n1C (stereo not drawn),"inconclusive: 11.7 µM [inhibitor, single point]",–
O=C1CC(c2ccc3ccccc3c2)NN1 (stereo not drawn),"inconclusive: 4.65 µM [inhibitor, single point]",–
Brc1ccc(-c2nn3c(-c4ccco4)nnc3s2)o1,"inconclusive: 11.7 µM [inhibitor, single point]",–
COc1ccc2c(C)c(CCC(=O)N3C[C@H]4C[C@@H](C3)c3cccc(=O)n3C4)c(=O)oc2c1,"inconclusive: 18.5 µM [inhibitor, single point]",–
O=C(CCCN1C(=O)C(c2ccccc2)Oc2cccnc21)NCc1ccc(F)cc1 (stereo not drawn),"inconclusive: 18.5 µM [inhibitor, single point]",–
COCCn1c(SCC(=O)c2ccc(F)cc2)nnc1C(C)C,"inconclusive: 8.28 µM [inhibitor, partial curve, poor fit]",–
COc1ccccc1N1CCN(/N=C/C=C\c2ccccc2[N+](=O)[O-])CC1,"inconclusive: 18.5 µM [inhibitor, single point]",–
CCOc1ccc(OCC)c(-c2c(=O)n(OCc3ccc(C(C)(C)C)cc3)c3ccccc3[n+]2[O-])c1,active: 11.7 µM,–
Cc1ccc(Nc2nc(-c3ccc(O)c(O)c3)cs2)nc1,"inconclusive: 0.586 µM [inhibitor, partial curve, poor fit]",–
CCOCc1nnc(NC(=O)CS(=O)(=O)c2ccc(C)cc2)s1,inactive,–
COc1ccc(NC(=O)c2cccc(-c3ccc(O)cc3)c2)cn1,"inconclusive: 10.4 µM [inhibitor, single point]",–
COc1ccc(S(=O)(=O)N[C@H](C(=O)N2CC[C@@]3(O)CCCC[C@H]3C2)c2ccccc2)cc1,"inconclusive: 11.7 µM [inhibitor, single point]",–
CC(C)Cn1cc(C(=O)N2CCN(c3ccccn3)CC2)c2c3ccccc3n(C)c2c1=O,active: 9.28 µM,–
COc1ccc(Br)cc1C(=O)Nc1cccc(C)c1,"inconclusive: 18.5 µM [inhibitor, single point]",–
CN(C(=O)C1CCOC1)c1nnc(-c2ccccn2)s1 (stereo not drawn),active: 13.1 µM,–
COc1ccc2nc(SCC(=O)N(C)C3CCCCC3)[nH]c2c1,"inconclusive: 18.5 µM [inhibitor, single point]",–
Cc1cccn2c(=O)c3cc(C#N)c(=NC(=O)c4cccs4)n(CCCOC(C)C)c3nc12,active: 1.85 µM,–
COc1ccc(N2C(=O)CCC2(C#N)c2ccc(OC)cc2)cc1 (stereo not drawn),inactive,–
CSc1ccc(/C=N/NC(=O)CN2CCN(Cc3ccccc3Cl)CC2)cc1,"inconclusive: 11.7 µM [inhibitor, single point]",–
CCN(CC(=O)Nc1cccc(S(=O)(=O)N(C)c2ccccc2)c1)Cc1ccccc1,active: 10.4 µM,–
COc1ccc(N(CC(=O)N2CCN(c3cccc(Cl)c3)CC2)S(=O)(=O)c2c(C)noc2C)cc1,"inconclusive: 18.5 µM [inhibitor, single point]",–
N#Cc1c(N2C(=O)C3C4C=CC(C4)C3C2=O)sc2c1CCC2 (stereo not drawn),"inconclusive: 0.657 µM [inhibitor, partial curve, poor fit]",–
CCCc1cc(=O)oc2c(C)c(OC(C)C(=O)NCC(O)c3ccccc3)ccc12 (stereo not drawn),inactive,–

Compound,Potency,"activity change, negative = inhibition"
Cc1ccc(NC(=O)Cc2noc3ccccc23)cc1,inactive,–
Cc1csc(=O)n1CCC(=O)OCC(=O)Nc1ccc(F)c(F)c1F,inactive,–
O=C(c1ccc(N2C(=O)C3C4CC(C(Br)C4Br)C3C2=O)cc1)N1CCCCC1 (stereo not drawn),inactive,–
Cc1cc(NC(=O)CN2CCN(C)CC2)no1,"inconclusive: 4.15 µM [inhibitor, single point]",–
NS(=O)(=O)c1ccc(CCNC(=O)CN2C(=O)COc3ccc(S(=O)(=O)N4CCCC4)cc32)cc1,"inconclusive: 8.28 µM [inhibitor, partial curve, poor fit]",–
CCn1ncc(Cl)c1C(=O)NC(=S)Nc1ccccc1Br,"inconclusive: 18.5 µM [inhibitor, single point]",–
COCCCn1c(Cc2csc(Nc3cccc(Cl)c3)n2)nnc1SCC(=O)OC1CCCCC1,"inconclusive: 16.5 µM [inhibitor, single point]",–
CCCCOCCCn1c(N)c(C(=O)OC(C)COC)c2nc3ccccc3nc21 (stereo not drawn),"inconclusive: 9.28 µM [inhibitor, single point]",–
Cc1cccc(CSc2nc3ccccc3c(=O)n2C)c1,"inconclusive: 5.22 µM [inhibitor, single point]",–
CC(CNC(=O)Cn1ccc2cc(S(=O)(=O)N3CCCC3)ccc21)c1ccccc1 (stereo not drawn),"inconclusive: 16.5 µM [inhibitor, single point]",–
CCCCC(O)(C(NC=O)C(=O)OC)C(F)(F)F (stereo not drawn),"inconclusive: 0.415 µM [inhibitor, full curve, poor fit]",–
C=C(C)c1cccc(C(C)(C)NC(=O)NC2CCCC2)c1,inactive,–
Cc1ccc(N2C(=O)NC(NS(=O)(=O)c3ccc(C)cc3)(C(F)(F)F)C2=O)cc1 (stereo not drawn),"inconclusive: 14.7 µM [inhibitor, single point]",–
CCc1cccc(OCCCCNCCO)c1,"inconclusive: 18.5 µM [inhibitor, single point]",–
Cc1ccc(NS(=O)(=O)c2cccc3cccnc23)c(Br)c1,inactive,–
COc1ccc(Br)cc1/C=N/Nc1ccccn1,"inconclusive: 18.5 µM [inhibitor, single point]",–
C=CCN1CCc2c(cc(O)c(O)c2Cl)C(c2ccccc2)C1 (stereo not drawn),"inconclusive: 18.5 µM [inhibitor, single point]",–
O=[N+]([O-])c1ccc(/C=C/C2=NN(c3ccccc3)C(c3ccco3)C2)o1 (stereo not drawn),"inconclusive: 18.5 µM [inhibitor, single point]",–
CCOC(=O)c1c(S(=O)(=O)Nc2ccc(F)cc2C)c(C)n(C)c1C,active: 14.7 µM,–
COc1cccc(C2(c3cccc(OC)c3)CC2C(=O)Nc2ccc(F)cc2)c1 (stereo not drawn),"inconclusive: 18.5 µM [inhibitor, single point]",–
O=C1CCN(Cc2ccccc2)S(=O)(=O)c2c(F)cc(F)cc21,inactive,–
COc1ccc(CNC(=O)C2CCN(c3nnc(N4CCCC4=O)s3)CC2)cc1,"inconclusive: 0.0928 µM [inhibitor, full curve, poor fit]",–
CC12CCC(C/C1=N\N=C1\NC(=O)/C(=C\c3cccc(Br)c3)S1)C2(C)C (stereo not drawn),active: 13.1 µM,–

Compound,Potency,"activity change, negative = inhibition"
NC(N)=NS(=O)(=O)c1ccc(NC(=S)NC(=O)c2ccc3c(c2)OCO3)cc1,"inconclusive: 10.4 µM [inhibitor, single point]",–
C#CCN(CC=C)C(=O)c1cccc(OC2CCN(S(C)(=O)=O)CC2)c1,"inconclusive: 10.4 µM [inhibitor, single point]",–
O=C(c1ccc(Br)o1)N1N=C(c2ccc(Cl)cc2)CC1c1ccco1 (stereo not drawn),active: 9.28 µM,–
O=Cc1ccc(O)cc1O,"inconclusive: 1.65 µM [inhibitor, full curve, poor fit]",–
CCN(c1cccc(C)c1)C(C(=O)Nc1ccc(OC)cc1)c1cc2c(cc1[N+](=O)[O-])OCO2 (stereo not drawn),"inconclusive: 4.65 µM [inhibitor, partial curve, poor fit]",–
COc1cccc(CN2CCNC(=O)C2CC(=O)N(Cc2cnn(C)c2)C(C)C)c1 (stereo not drawn),inactive,–
CCc1ccc(N2CC(C(=O)Nc3nc4ccc(S(C)(=O)=O)cc4s3)CC2=O)cc1 (stereo not drawn),"inconclusive: 4.65 µM [inhibitor, partial curve]",–
O=[N+]([O-])c1cc(C(F)(F)F)ccc1NC1CCN(Cc2ccccc2)CC1,inactive,–
CC(C)Cn1c(-c2ccccc2)nc2ccccc2c1=O,"inconclusive: 18.5 µM [inhibitor, single point]",–
O=C(C1CCCCN1S(=O)(=O)c1ccccc1)N1CCCCC1 (stereo not drawn),"inconclusive: 6.57 µM [inhibitor, partial curve, poor fit]",–
CC(C)N1CCc2c(sc(NC(=O)CCS(=O)(=O)c3ccccc3)c2C(N)=O)C1,"inconclusive: 0.0033 µM [inhibitor, full curve, poor fit]",–
CP(C)(=O)CCP(=O)(c1ccccc1)c1ccccc1,inactive,–
COCC(C)NC(=O)COc1ccc(Cl)cc1Cl (stereo not drawn),"inconclusive: 8.28 µM [inhibitor, partial curve, poor fit]",–
COc1cc(C(=O)NCc2nc(C)cs2)ccc1OC1CCN(C(C)=O)CC1,"inconclusive: 10.4 µM [inhibitor, single point]",–
Cn1c(Cc2cccc3ccccc23)nnc1SCc1ccc([N+](=O)[O-])cc1,"inconclusive: 18.5 µM [inhibitor, single point]",–
CCC(=O)NC(=S)Nc1ccc2oc(-c3ccc(OC)cc3)nc2c1,–,inactive: -29.1% [at 5.75 µM]
COc1ccc(Cc2nnc(NC(=O)C3CC(=O)N(c4ccccc4C)C3)s2)cc1OC (stereo not drawn),"inconclusive: 18.5 µM [inhibitor, single point]",–
O=C(CCNC(=O)c1ccccc1Cl)Nc1nc2ccccc2s1,inactive,–
CCO[C@H]1OC(C(=O)NC2CC2)=C[C@@H](c2ccc(Br)cc2)[C@@H]1CCCO,inactive,–
CCOc1ccc(NC(=S)N2CCN(S(C)(=O)=O)CC2)cc1,"inconclusive: 0.738 µM [inhibitor, partial curve, poor fit]",–
Cc1cccc(NC(=O)C2CCCN(c3nc(C)cc(C)n3)C2)c1 (stereo not drawn),inactive,–
CC(=O)Oc1ccc(C(=O)Nc2ccc(C3(C#N)CCCC3)cc2)cc1,"inconclusive: 13.1 µM [inhibitor, single point]",–

# Quoted from the listing.
# Entry of Cn1c(Cc2cccc3ccccc23)nnc1SCc1ccc([N+](=O)[O-])cc1 under Potency: inconclusive: 18.5 µM [inhibitor, single point]
# Entry of NC(N)=NS(=O)(=O)c1ccc(NC(=S)NC(=O)c2ccc3c(c2)OCO3)cc1 under Potency: inconclusive: 10.4 µM [inhibitor, single point]
